The target in one assay is T1, TF-Cub-Anp1p (yeast) (UniProt P32629).
T1 sequence: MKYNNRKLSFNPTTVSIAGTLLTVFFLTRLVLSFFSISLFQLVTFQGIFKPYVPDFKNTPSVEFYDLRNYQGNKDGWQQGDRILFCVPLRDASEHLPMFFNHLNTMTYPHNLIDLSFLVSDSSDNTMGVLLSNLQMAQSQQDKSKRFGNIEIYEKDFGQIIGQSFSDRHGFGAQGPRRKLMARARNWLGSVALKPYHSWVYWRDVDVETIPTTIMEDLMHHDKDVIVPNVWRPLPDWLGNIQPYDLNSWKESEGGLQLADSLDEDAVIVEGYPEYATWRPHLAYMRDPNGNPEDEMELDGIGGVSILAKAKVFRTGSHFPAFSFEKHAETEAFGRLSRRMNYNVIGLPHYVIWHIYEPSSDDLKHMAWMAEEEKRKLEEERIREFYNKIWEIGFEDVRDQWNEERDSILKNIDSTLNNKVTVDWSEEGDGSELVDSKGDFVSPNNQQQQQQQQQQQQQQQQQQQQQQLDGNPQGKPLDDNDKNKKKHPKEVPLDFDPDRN
Kind of assay: two-hybrid.

In assay [1] the target is T2, TF-Cub-GAUT1 (galacturonosyltransferase1, full length, N-terminally tagged with a TF-Cub fusion) (Arabidopsis thaliana) (UniProt Q9LE59).
T2 sequence: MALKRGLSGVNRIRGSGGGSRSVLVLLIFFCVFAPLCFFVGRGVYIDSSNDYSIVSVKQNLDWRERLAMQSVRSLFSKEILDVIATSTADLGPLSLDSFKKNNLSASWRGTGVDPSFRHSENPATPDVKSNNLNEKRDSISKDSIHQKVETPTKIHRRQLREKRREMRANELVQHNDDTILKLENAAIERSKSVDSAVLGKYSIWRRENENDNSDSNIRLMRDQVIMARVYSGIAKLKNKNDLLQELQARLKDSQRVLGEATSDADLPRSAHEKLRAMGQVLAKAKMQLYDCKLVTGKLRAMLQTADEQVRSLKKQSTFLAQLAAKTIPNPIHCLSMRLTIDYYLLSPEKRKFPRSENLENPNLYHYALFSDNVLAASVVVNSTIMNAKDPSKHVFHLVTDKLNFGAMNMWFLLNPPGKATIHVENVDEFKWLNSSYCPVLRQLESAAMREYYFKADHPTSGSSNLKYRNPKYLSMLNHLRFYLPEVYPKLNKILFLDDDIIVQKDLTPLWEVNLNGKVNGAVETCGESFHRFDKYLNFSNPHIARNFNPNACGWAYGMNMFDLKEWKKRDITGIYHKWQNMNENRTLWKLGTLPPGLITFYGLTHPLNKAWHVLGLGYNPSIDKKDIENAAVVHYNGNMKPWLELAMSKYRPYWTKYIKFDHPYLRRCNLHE
Kind of assay: two-hybrid.

No constants are given. Whether binding was seen depends on the method and setting. Some results given as binding are weak or reduced against the parent protein; the word gives no strength. Tags and fused reporters may be left off the sequences shown.

B1: NubG-GAUT7 (full-length GAUT7 fused with NubG) (protein, UniProt Q9ZVI7 1-619)
chain: MKGGGGGGGGGGGGKRRWKVLVIGVLVLVILSMLVPLAFLLGLHNGFHSPGFVTVQPASSFESFTRINATKHTQRDVSERVDEVLQKINPVLPKKSDINVGSRDVNATSGTDSKKRGLPVSPTVVANPSPANKTKSEASYTGVQRKIVSGDETWRTCEVKYGSYCLWREENKEPMKDAKVKQMKDQLFVARAYYPSIAKMPSQSKLTRDMKQNIQEFERILSESSQDADLPPQVDKKLQKMEAVIAKAKSFPVDCNNVDKKLRQILDLTEDEASFHMKQSVFLYQLAVQTMPKSLHCLSMRLTVEHFKSDSLEDPISEKFSDPSLLHFVIISDNILASSVVINSTVVHARDSKNFVFHVLTDEQNYFAMKQWFIRNPCKQSTVQVLNIEKLELDDSDMKLSLSAEFRVSFPSGDLLASQQNRTHYLSLFSQSHYLLPKLFDKLEKVVILDDDVVVQRDLSPLWDLDMEGKVNGAVKSCTVRLGQLRSLKRGNFDTNACLWMSGLNVVDLARWRALGVSETYQKYYKEMSSGDESSEAIALQASLLTFQDQVYALDDKWALSGLGYDYYINAQAIKNAAILHYNGNMKPWLELGIPNYKNYWRRHLSREDRFLSDCNVNP
Take B1: the binding result is on record as “no binding” with TF-Cub-Anp1p (yeast) and “binds” in assay [1].

Values taken from article doi:10.1101/2020.02.03.932111.
